No constants are given. Whether binding was seen depends on the method and setting. Binding seen in cells or lysates may run through a third protein. Some results given as binding are weak or reduced against the parent protein; the word gives no strength. For some assays here: Sequences can lack the tags named with a protein.
Columns and labels:
[1] = target: Flag-G3BP1 (UniProt Q13283); experiment: co-IP
[2] = target: T1, Flag-G3BP2 (UniProt Q9UN86); experiment: co-IP
T1 sequence: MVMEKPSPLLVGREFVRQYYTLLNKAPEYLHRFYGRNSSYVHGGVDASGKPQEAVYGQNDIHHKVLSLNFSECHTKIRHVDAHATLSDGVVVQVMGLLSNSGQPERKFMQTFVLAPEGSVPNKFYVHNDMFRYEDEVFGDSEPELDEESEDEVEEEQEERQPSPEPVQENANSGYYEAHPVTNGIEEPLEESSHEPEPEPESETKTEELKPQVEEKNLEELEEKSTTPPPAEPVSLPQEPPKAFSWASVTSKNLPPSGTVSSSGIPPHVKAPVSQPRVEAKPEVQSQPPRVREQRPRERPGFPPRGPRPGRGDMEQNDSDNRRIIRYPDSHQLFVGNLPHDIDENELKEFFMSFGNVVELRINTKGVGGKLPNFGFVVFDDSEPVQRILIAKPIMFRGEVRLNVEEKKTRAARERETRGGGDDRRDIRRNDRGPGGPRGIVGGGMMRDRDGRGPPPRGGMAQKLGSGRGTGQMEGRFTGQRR

Amino acid sequences for entries named in this document (tags omitted).
UniProt P33469: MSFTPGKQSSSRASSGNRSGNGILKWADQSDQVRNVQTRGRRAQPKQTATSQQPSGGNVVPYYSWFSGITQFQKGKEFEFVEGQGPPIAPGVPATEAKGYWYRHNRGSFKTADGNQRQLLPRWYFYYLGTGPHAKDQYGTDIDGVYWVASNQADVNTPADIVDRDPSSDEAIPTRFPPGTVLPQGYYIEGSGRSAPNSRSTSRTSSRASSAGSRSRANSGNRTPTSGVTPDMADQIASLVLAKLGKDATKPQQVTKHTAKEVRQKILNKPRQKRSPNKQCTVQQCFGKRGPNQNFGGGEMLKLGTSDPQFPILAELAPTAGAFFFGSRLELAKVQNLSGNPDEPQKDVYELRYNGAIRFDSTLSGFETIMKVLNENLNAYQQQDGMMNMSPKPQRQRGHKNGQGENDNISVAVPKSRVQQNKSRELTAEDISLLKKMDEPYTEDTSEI

Substance | binding [1] | binding [2]
NP^SARS-CoV-green fluorescent protein (GFP) (from UniProt P59595 1-422) | binds | –
eGFP-tagged NP^HCoV-OC43 (from UniProt P33469 1-448) | – | binds

— article PMC9215227
